Experimental data from PubChem BioAssay AID590 (National Center for Advancing Translational Sciences (NCATS), 2007).
About 6,500 (11%) of roughly 59,000 compounds were called active. Inconclusive means that the source gave no clear call. Such entries were picked first, then a sample of the others. Cut-off read from the data, not from the text of the source: active = max dye-equivalent concentration above about 10 nM; inconclusive = mostly about 1.1 nM to 9.6 nM; inactive = weaker than that.

test: qHTS Assay for Spectroscopic Profiling in A350 Spectral Region; conditions: Compound autofluorescence, 340/450 nm, Alexa 350 dye-equivalents; active compounds read high

SMILES | max dye-equivalent concentration
COCCNC(=O)C(c1cccc(OC)c1)N(C(=O)Cn1nnc2ccccc21)c1cccnc1 (stereo not drawn) | inconclusive: 2 nM
NC(=O)c1c(-c2ccccc2)oc2ccc(O)cc12 | inconclusive: 1.4 nM
Brc1ccc(Nc2c3c(nc4ncnn24)CCC3)cc1 | inactive
N#CCCn1c(=O)c(-c2ccc(Cl)cc2)nc2cnc(N3CCOCC3)nc21 | active: 33 nM
COc1ccc(CC(=O)NC2CCN(CC(=O)Nc3ccc4c(c3)OCCO4)CC2)cc1OC | inconclusive: 3.6 nM
CC1CCN(S(=O)(=O)c2ccc(NC(=O)CSc3nnnn3C)cc2)CC1 | inconclusive: 3.3 nM
COC(=O)C(Cc1ccc(O)cc1)NC(=O)C(C)Oc1ccccc1 (stereo not drawn) | inactive
COc1ccc2[nH]c(=O)c(CN(C(=O)c3ccccn3)C3CCCCC3)cc2c1 | active: 230 nM
CCOP(=O)(c1c(F)c(F)c(F)c(F)c1F)C(O)c1ccccc1 (stereo not drawn) | inconclusive: 8 nM
Cc1ccc(S(=O)(=O)N2CCN(C(=O)c3cc(=O)[nH]c4ccccc34)CC2)c(C)c1 | inconclusive: 2.8 nM
O=C(c1cc(Cl)ccc1Cl)N1CCN(c2ccccn2)CC1 | inactive
O=C(NCc1ccco1)c1cc2cc3ccc(Cl)cc3nc2o1 | inconclusive: 4.2 nM
CCc1nc(N)c(C#N)c(-c2ccncc2)c1C | active: 25 nM
CCOC(=O)c1nnn(-c2nonc2N)c1CN1CCCCCC1 | inconclusive: 1.3 nM
O=C(CSc1nnnn1C1CCCC1)Nc1ccc2c(c1)OCCO2 | inconclusive: 6.9 nM
Clc1cccc(-c2nc3nc4ccccc4nc3n2Cc2ccco2)c1 | active: 150 nM
N[C@@H]1CCN(O)C1=O | inactive
CC1CCC(NC(=O)CN2C(=O)C3CCCN3c3ncc(Cl)cc32)CC1 (stereo not drawn) | active: 12 nM
Cc1cc(C(F)F)n2ncc(C(=O)N3CCc4ccccc4C3)c2n1 | inconclusive: 2 nM
Cn1c(=O)n(CC(=O)OCc2ccccc2)c(=O)c2c1nc1n2CCCN1C1CCCCC1 | inconclusive: 7.8 nM

SMILES | max dye-equivalent concentration
CCN1CCN(c2nc(SC)nc3sc4c(c23)CC(C)(C)OC4)CC1 | active: 14 nM
COc1cc2c(cc1OC)C1(CCCC1)CNC2C (stereo not drawn) | inconclusive: 3.8 nM
Cc1cnc(CNc2ncnc3ccc(-c4ccc(C(=O)N(C)C)cc4)cc23)cn1 | inconclusive: 1.1 nM
COc1cccc(NC(=O)N(Cc2cc3cc(C)cc(C)c3[nH]c2=O)CC2COCCO2)c1 (stereo not drawn) | inconclusive: 2.9 nM
CCOc1ccc(-c2nc(CSCC(=O)NCCN3CCOCC3)c(C)o2)cc1 | inactive
O=C(Nc1ccccc1C(=O)OCC(=O)N1CCc2ccccc2C1)c1ccco1 | inconclusive: 2.5 nM
CC(=O)Nc1ccc(S(=O)(=O)N(C)S(=O)(=O)c2ccc(F)cc2)cc1 | inactive
N#C/C(=C\c1ccc[nH]1)S(=O)(=O)c1ccccc1 | inconclusive: 5 nM
CCOC(=O)c1sc2c(c1C)C(c1cccs1)C1=C(CCCC1=O)N2 (stereo not drawn) | active: 5800 nM
COc1ccc(CNC(=O)Cn2cnc3c(=O)n(C)c(=O)n(C)c32)cc1 | inconclusive: 1.3 nM
Brc1ccc(-c2nn3c(-c4ccncc4)nnc3s2)o1 | active: 62 nM
CCc1ccc2c(c1)CCCN2C(=O)c1ccccc1C(=O)O | inconclusive: 3.8 nM
Cc1ccc2nc(CSc3nnc(-c4ccco4)n3-c3ccccc3)cc(=O)n2c1 | inconclusive: 3.5 nM
Cn1nnnc1SCC(=O)N1CCN(Cc2ccccc2)CC1 | inconclusive: 4 nM
CCc1nc(N2CCCC2)c(C#N)c2c1CCCC2 | active: 180 nM
COc1cc(C(=O)Nc2nnc(-c3sccc3C)s2)cc(OC)c1OC | inconclusive: 2 nM
CCOC(=O)CN=C1CC(C)(C)CC2=C1Sc1ncnc(N(C)C)c1N2 | inconclusive: 2.4 nM
COc1ccc(OC)c(NC(=O)C2CCCC2)c1 | inactive
O=C(CN1CCN(C2CCCCC2)CC1)Nc1ccccc1N1CCCCC1 | inconclusive: 1.2 nM
CCN(CC)S(=O)(=O)c1cccc(C(=O)OCC(=O)N2CC(=O)Nc3ccccc32)c1 | inconclusive: 1.4 nM

SMILES | max dye-equivalent concentration
Cc1cc(NC(=O)c2cc3ncc(Br)cn3n2)no1 | inconclusive: 4.7 nM
Cc1ccccc1-c1ccc2ncnc(NCc3cccnc3)c2c1 | inconclusive: 2.7 nM
COc1ccc(NC(=O)Nc2ccccc2C(=O)N2CCCC2)cc1 | inactive
Cc1cccc(C(=O)Nc2ccccc2C(=O)OCc2c(C)noc2C)c1 | inactive
CCOC(=O)CSc1nnc(-c2ccco2)n1C | inconclusive: 1.5 nM
CN=C1SC(CC(=O)Nc2cc(Cl)ccc2Cl)C(=O)N1C (stereo not drawn) | inactive
Cc1nnc(SCc2cnc(-c3ccccc3)o2)[nH]c1=O | inactive
COc1ccc(NC(=O)CN2CCC(NC(=O)C3CCCCC3)CC2)cc1 | inactive
CCOC(=O)c1cc(C(C)=O)c(=O)n(C)c1N | active: 16 nM
CCCOc1ccc(Cc2nn3c(=O)/c(=C/c4ccco4)sc3nc2=O)cc1 | inconclusive: 1.2 nM
COc1ccccc1CCn1c(=O)c(-c2cccc(F)c2)nc2cncnc21 | inactive
CCc1cc(-c2n[nH]c(C)c2-c2nc3ccccc3n2C)c(O)c(CN2CCN(C)CC2)c1O | inconclusive: 1.6 nM
C(/C=C\c1ccccc1)=Nc1ccc2c(c1)Cc1ccccc1-2 | inactive
CN(C)c1ncc2nc(-c3cccs3)c(=O)n(C)c2n1 | active: 22 nM
O=c1c(CCc2ccccc2)nc2cnc(N3CCOCC3)nc2n1Cc1ccc(F)cc1 | active: 41 nM
COc1ccc(CN2C(=O)CN(C3CCCCCC3)C(=O)C2c2ccc(OC)c(OC)c2)cc1 (stereo not drawn) | inconclusive: 1.1 nM
Cc1noc(C)c1Cn1nc(C(=O)O)c2ccccc2c1=O | inconclusive: 2.6 nM
Cc1ccc(-n2c(C)nc3oc4ccccc4c(=O)c3c2=O)cc1 | inconclusive: 5.2 nM

Reprinted from the results shown (15 entries):
SMILES | max dye-equivalent concentration
Cn1nnnc1SCC(=O)N1CCN(Cc2ccccc2)CC1 | inconclusive: 4 nM
CCc1nc(N2CCCC2)c(C#N)c2c1CCCC2 | active: 180 nM
COc1cc(C(=O)Nc2nnc(-c3sccc3C)s2)cc(OC)c1OC | inconclusive: 2 nM
CCOC(=O)CN=C1CC(C)(C)CC2=C1Sc1ncnc(N(C)C)c1N2 | inconclusive: 2.4 nM
COc1ccc(OC)c(NC(=O)C2CCCC2)c1 | inactive
O=C(CN1CCN(C2CCCCC2)CC1)Nc1ccccc1N1CCCCC1 | inconclusive: 1.2 nM
CCN(CC)S(=O)(=O)c1cccc(C(=O)OCC(=O)N2CC(=O)Nc3ccccc32)c1 | inconclusive: 1.4 nM
Cc1cc(NC(=O)c2cc3ncc(Br)cn3n2)no1 | inconclusive: 4.7 nM
Cc1ccccc1-c1ccc2ncnc(NCc3cccnc3)c2c1 | inconclusive: 2.7 nM
COc1ccc(NC(=O)Nc2ccccc2C(=O)N2CCCC2)cc1 | inactive
Cc1cccc(C(=O)Nc2ccccc2C(=O)OCc2c(C)noc2C)c1 | inactive
CCOC(=O)CSc1nnc(-c2ccco2)n1C | inconclusive: 1.5 nM
CN=C1SC(CC(=O)Nc2cc(Cl)ccc2Cl)C(=O)N1C (stereo not drawn) | inactive
Cc1nnc(SCc2cnc(-c3ccccc3)o2)[nH]c1=O | inactive
COc1ccc(NC(=O)CN2CCC(NC(=O)C3CCCCC3)CC2)cc1 | inactive
